PubChem BioAssay AID1259308, NCATS, 2017
The deposit covers about 59,000 reagents; below is a random part of them. Of all reagents, about 1,510 (2.6%) are marked active. 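Calls use total luciferase alone and ignore viability, so some active siRNAs may act by altering cell number.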 Reagents against one gene are numbered here.

Aim: 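Knock-downs that increase output of a recombinant reporter protein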 (primary screen)
Cell system: human HEK293 embryonic kidney cells stably expressing firefly luciferase (HEK-CMV-Luc2-Hygro)
Reagent: single siRNA against human genes, 0.8 pmol siRNA per well
Time to read-out: 72 h
Detection: 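Luciferase light (ONE-Glo) measured on one replicate plate set and viability (CellTiter-Glo) on the other, scaled to a negative control siRNA, with robust z-scores and luciferase per cell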
Direction: total luciferase, z-score and total luciferase, % of control: higher = more reporter protein produced; luciferase per cell, z-score: higher = more reporter output per viable cell; viable cells, % of control: higher = more viable cells
Hit rule: 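An siRNA counts as active if its total luciferase robust z-score exceeds 3; genes with two or more such siRNAs out of three were retested with fresh siRNAs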
Calls: active = raised luciferase; inactive = no rise

no.	Gene	reagent	total luciferase, z-score	total luciferase, % of control	luciferase per cell, z-score	viable cells, % of control	outcome
1	PCDHGA2	1	1.55	113	0.706	105	inactive
2	PCDHGA2	2	-0.797	66	-1	96.1	inactive
3	PCDHGA2	3	1.01	102	0.917	89.5	inactive
4	PARP1	1	0.958	101	0.793	91.5	inactive
5	PARP1	2	-1.53	51.4	-1.52	85.6	inactive
6	PARP1	3	0.777	97.3	0.172	104	inactive
7	DEFB4A	1	-1.97	42.7	-2.3	87.5	inactive
8	DEFB4A	2	0.765	97.1	1.4	75	inactive
9	DEFB4A	3	-0.465	72.6	-0.263	87	inactive
10	DKKL1	1	-2.08	40.5	-2.32	83.4	inactive
11	DKKL1	2	0.159	85.1	0.375	86.1	inactive
12	DKKL1	3	-0.538	71.2	-0.609	93.4	inactive
13	MRPS35	1	-0.561	70.7	-0.787	97.2	inactive
14	MRPS35	2	-0.156	78.8	-0.49	100	inactive
15	MRPS35	3	0.858	99	1.15	81.8	inactive
16	ECSIT	1	0.433	90.5	0.773	82.5	inactive
17	ECSIT	2	-0.347	75	-0.827	104	inactive
18	ECSIT	3	-1.32	55.6	-1.9	102	inactive
19	ELOA	1	-1.08	60.3	-1.18	92	inactive
20	ELOA	2	-0.563	70.7	-0.538	91	inactive
21	ELOA	3	0.0398	82.7	0.389	83.4	inactive
22	CFAP68	1	2.39	129	1.56	95.9	inactive
23	CFAP68	2	-0.159	78.7	0.213	83.2	inactive
24	CFAP68	3	0.84	98.6	0.315	101	inactive
25	GYS2	1	0.346	88.8	0.163	95	inactive
26	GYS2	2	-0.208	77.8	0.0597	85.5	inactive
27	GYS2	3	-1.1	60	-1.37	96.2	inactive
28	HOXD8	1	-0.121	79.5	-0.415	99.1	inactive
29	HOXD8	2	0.255	87	0.0371	96.2	inactive
30	HOXD8	3	0.0918	83.7	0.113	90.8	inactive
31	DOK3	1	0.241	86.7	0.0724	95	inactive
32	DOK3	2	0.84	98.6	0.577	94.6	inactive
33	DOK3	3	1.68	115	1.2	94	inactive
34	TMEM41A	1	1.32	108	0.735	99.6	inactive
35	TMEM41A	2	0.431	90.5	-0.293	109	inactive
36	TMEM41A	3	1.08	103	0.646	97.5	inactive
37	PPP1R3F	1	-0.251	76.9	0.371	77.9	inactive
38	PPP1R3F	2	-0.145	79	-0.28	95	inactive
39	PPP1R3F	3	0.512	92.1	0.771	84	inactive
40	AP1AR	1	0.467	91.2	0.374	92.3	inactive
41	AP1AR	2	-1.07	60.7	-1.22	93.5	inactive
42	AP1AR	3	-0.364	74.7	-0.48	94.7	inactive
43	C9orf153	1	0.434	90.5	-0.42	113	inactive
44	C9orf153	2	-0.744	67.1	-1.6	114	inactive
45	C9orf153	3	0.892	99.6	0.444	99	inactive
46	CARNMT1	1	1.05	103	0.622	97.5	inactive
47	CARNMT1	2	0.85	98.8	0.516	96.4	inactive
48	CARNMT1	3	-1.28	56.4	-0.753	76.8	inactive
49	ARHGEF18	1	-0.729	67.4	-0.641	89.2	inactive
50	ARHGEF18	2	0.645	94.7	0.45	94	inactive
51	ARHGEF18	3	0.81	98	0.244	103	inactive
52	ZNF488	1	-0.434	73.3	-0.316	89	inactive
53	ZNF488	2	3.78	157	2.89	82.1	active
54	ZNF488	3	0.457	91	-0.205	107	inactive
55	ZNF311	1	1.56	113	1.59	83.1	inactive
56	ZNF311	2	-0.428	73.4	-0.391	90.9	inactive
57	ZNF311	3	-0.158	78.7	-0.293	95	inactive

Part of the list above, reduced to “total luciferase, % of control”:
C9orf153 #2: 67.1
C9orf153 #3: 99.6
CARNMT1 #1: 103
CARNMT1 #2: 98.8
CARNMT1 #3: 56.4
ARHGEF18 #1: 67.4
